Source: paper PMC3778009
Construct, isoform or probe ends are uncertain for at least one entry. At least one result comes from cells or an extract, where the contact may be indirect. Weaker means in comparison with the reference protein, sequence or condition of that experiment. At least one verdict rests on a figure or table, not on a statement of the authors. Where a protein sequence is shown, tags need not be part of it. For part of these data: The direction of at least one scale is not stated here.

Legend:
[1] = biological target: T1, endogenous MEIOB (testis extract) (UniProt Q9D513); assay: pull-down; settings: 10 ug/ml BSA, 1 mM EDTA, 1 h at 4 C, protein in an extract, label: biotin
T1 sequence (looked up, limits assumed): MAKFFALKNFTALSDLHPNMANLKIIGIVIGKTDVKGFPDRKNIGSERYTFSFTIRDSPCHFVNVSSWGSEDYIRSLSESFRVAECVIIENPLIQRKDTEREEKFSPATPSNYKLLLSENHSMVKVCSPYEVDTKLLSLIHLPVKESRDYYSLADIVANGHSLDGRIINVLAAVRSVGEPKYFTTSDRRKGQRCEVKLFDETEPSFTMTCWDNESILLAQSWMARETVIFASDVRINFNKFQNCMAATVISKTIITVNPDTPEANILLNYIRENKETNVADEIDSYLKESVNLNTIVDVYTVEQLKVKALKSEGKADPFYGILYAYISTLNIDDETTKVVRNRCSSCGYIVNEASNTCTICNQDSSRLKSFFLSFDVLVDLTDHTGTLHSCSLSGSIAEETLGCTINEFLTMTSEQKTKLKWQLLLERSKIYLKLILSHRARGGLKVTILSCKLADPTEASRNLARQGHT

[2] = system: T2, tagged human MEIOB (HEK-293 lysate) (human); assay: pull-down; settings: 10 ug/ml BSA, 1 mM EDTA, 1 h at 4 C, protein in a lysate after overexpression, label: biotin
T2 sequence (looked up, limits assumed): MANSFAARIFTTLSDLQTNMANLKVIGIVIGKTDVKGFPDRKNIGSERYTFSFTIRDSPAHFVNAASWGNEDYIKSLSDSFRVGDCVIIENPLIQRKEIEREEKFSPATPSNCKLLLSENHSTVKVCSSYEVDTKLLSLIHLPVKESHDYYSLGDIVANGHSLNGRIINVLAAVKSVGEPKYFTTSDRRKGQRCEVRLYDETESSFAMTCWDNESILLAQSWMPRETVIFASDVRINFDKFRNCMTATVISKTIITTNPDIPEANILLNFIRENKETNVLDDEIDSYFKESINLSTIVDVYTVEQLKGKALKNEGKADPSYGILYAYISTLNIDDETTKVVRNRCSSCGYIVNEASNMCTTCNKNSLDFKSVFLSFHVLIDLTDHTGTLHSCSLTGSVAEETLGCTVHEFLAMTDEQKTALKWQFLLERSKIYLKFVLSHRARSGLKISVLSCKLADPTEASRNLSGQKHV

[3] = 3' BiotinTEG, BSA 5 mg/ml (cell-free) or 10 ug/ml (extracts), single-stranded DNA
[4] = 3' BiotinTEG on strand 1, BSA 5 mg/ml (cell-free) or 10 ug/ml (extracts)

Sequence	binding signal (fraction of ss60-mer retention) [1, 3]	binding result [2, 3]	binding result [1, 4]	binding result [2, 4]	binding signal (reference for ss30-mer retention) [1, 3]
GATCTCAGCGATTCACACGCGTCCTAACTCG [ss30-mer 2]	0.5	binds more weakly			
GATCTGCACGACGCACACCGGACGTATCTGCTATCGCTCATGTCAACCGCTCAAGCTGC (double strand) [ds60-mer]			binds more weakly	binds more weakly	
GATCTGCACGACGCACACCGGACGTATCTGCTATCGCTCATGTCAACCGCTCAAGCTGC [ss60-mer]		binds			1
